The other results are listed elsewhere or left out.
Compound: Cc1cc(ccc1-c1ccccc1)C(=O)N1CCCN(CC1)C(=O)CCl [compound 10]
Assay: probe-labelled cysteine peptide fold change vs DMSO (competition) (log2 fold change); higher = less target engagement (more negative = stronger competition)
Details: THP-1, incubation time: 4 h
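Also: competitive profiling in live THP-1 cells: cysteine peptides tagged with an iodoacetamide desthiobiotin (IA-DTB) probe, intensity after compound treatment relative to DMSO-treated cells.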

Protein sequences, listed by entry. Tags and fused reporters are not part of them. Lines headed by an entry give the natural chain unless they say otherwise; changes in a name come on top.
UniProt Q9BS26: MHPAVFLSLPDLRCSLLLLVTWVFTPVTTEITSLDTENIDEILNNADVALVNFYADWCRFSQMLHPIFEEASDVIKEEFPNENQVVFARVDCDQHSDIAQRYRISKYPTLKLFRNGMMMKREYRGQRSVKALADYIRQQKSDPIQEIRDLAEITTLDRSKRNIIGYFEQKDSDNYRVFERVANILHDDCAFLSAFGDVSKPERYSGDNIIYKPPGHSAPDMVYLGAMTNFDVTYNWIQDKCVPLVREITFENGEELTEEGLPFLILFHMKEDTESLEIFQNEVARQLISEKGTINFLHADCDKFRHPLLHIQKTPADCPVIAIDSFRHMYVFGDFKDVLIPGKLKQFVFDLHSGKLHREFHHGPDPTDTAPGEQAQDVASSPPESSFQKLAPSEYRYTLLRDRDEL
UniProt Q01469, whole entry, looked up: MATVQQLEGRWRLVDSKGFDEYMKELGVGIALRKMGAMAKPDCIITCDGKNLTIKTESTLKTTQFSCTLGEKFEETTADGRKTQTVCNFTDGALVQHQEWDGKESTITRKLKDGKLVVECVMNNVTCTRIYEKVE
UniProt Q15910, whole entry, looked up: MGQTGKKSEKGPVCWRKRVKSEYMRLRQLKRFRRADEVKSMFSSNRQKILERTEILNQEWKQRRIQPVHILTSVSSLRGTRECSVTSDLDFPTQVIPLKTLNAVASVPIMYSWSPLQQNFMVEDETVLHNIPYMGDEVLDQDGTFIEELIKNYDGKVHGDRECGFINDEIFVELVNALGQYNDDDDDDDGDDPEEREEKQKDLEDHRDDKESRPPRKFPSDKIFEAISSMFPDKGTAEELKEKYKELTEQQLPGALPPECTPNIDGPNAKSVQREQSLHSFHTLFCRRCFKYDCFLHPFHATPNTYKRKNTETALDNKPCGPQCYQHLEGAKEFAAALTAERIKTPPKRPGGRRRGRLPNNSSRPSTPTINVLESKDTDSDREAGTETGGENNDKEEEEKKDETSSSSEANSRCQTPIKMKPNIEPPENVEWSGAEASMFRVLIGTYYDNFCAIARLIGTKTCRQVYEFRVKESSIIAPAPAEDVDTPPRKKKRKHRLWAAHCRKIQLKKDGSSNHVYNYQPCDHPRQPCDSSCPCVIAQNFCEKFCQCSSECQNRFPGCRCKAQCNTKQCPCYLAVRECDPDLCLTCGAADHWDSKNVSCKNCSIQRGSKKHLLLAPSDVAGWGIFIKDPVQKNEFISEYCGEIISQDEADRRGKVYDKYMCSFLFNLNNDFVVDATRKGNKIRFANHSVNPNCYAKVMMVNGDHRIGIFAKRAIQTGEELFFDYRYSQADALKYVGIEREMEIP
UniProt Q2NKX8: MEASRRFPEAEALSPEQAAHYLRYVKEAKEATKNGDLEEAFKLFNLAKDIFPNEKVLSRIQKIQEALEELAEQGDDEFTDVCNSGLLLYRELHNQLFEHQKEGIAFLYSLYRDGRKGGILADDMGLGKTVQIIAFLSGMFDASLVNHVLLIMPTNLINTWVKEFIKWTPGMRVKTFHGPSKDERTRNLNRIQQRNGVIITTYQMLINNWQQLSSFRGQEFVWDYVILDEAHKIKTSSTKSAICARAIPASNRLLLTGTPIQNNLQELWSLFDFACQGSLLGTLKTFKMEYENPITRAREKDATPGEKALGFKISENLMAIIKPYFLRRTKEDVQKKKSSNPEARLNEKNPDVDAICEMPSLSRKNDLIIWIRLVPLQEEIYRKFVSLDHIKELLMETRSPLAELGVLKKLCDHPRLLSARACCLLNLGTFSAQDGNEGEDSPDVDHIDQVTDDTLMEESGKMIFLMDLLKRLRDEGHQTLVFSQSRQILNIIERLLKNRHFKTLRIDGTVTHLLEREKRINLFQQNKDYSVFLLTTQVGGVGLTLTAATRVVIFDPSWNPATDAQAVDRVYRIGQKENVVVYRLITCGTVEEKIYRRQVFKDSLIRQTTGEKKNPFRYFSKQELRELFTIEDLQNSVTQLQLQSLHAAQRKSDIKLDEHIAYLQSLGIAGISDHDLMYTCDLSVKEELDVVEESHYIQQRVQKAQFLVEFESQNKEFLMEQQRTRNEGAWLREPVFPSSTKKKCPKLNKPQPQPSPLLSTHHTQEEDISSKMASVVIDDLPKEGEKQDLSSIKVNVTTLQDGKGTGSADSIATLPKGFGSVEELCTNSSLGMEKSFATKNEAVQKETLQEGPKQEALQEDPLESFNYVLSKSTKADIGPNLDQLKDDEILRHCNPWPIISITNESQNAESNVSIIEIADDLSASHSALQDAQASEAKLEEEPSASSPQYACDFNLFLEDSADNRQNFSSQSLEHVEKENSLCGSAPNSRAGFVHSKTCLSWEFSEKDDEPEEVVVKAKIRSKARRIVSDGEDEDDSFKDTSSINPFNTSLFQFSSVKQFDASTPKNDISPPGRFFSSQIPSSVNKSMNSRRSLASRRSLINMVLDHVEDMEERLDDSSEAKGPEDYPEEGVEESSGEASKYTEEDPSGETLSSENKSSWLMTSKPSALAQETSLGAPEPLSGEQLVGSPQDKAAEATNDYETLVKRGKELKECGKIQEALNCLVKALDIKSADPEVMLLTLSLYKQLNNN
UniProt Q96B26, whole entry, looked up: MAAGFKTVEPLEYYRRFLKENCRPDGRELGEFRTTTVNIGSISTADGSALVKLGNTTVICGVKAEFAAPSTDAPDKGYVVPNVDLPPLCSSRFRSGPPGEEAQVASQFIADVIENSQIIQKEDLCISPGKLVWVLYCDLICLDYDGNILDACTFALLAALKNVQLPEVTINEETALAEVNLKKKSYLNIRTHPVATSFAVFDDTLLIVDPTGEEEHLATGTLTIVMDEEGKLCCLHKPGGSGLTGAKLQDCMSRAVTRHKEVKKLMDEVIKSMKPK
UniProt Q9BSJ8: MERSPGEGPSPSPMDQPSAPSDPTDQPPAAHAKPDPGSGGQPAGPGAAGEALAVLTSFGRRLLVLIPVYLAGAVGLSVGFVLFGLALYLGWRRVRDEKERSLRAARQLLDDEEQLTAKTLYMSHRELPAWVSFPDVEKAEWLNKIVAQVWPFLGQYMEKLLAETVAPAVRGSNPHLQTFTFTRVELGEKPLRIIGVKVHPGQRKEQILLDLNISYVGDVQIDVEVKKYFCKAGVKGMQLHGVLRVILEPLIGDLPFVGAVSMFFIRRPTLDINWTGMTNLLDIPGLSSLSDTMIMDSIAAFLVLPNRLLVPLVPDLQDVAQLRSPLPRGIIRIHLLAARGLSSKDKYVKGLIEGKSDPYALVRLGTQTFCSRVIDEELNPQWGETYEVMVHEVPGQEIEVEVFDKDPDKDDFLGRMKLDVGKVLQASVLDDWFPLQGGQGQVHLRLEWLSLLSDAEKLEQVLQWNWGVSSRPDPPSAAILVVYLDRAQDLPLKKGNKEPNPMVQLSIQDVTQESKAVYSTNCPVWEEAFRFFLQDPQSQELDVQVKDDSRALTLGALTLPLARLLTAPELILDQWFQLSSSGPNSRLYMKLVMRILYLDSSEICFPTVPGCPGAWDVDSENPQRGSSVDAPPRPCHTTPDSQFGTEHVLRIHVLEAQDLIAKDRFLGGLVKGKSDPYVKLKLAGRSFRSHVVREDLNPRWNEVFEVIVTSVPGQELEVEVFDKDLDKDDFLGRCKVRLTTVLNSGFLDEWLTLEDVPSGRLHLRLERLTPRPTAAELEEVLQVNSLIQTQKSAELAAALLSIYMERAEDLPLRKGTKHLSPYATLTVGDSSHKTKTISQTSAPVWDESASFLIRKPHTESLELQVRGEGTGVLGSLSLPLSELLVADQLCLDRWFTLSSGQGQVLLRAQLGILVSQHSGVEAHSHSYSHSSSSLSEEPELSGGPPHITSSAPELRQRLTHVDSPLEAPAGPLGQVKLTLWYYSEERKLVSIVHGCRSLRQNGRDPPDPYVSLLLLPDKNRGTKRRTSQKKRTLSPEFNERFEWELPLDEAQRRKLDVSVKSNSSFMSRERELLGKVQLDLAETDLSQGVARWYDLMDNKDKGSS
UniProt P84090, whole entry, looked up: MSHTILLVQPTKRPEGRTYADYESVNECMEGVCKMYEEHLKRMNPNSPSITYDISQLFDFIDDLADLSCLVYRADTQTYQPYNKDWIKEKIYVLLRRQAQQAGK
UniProt Q15024, whole entry, looked up: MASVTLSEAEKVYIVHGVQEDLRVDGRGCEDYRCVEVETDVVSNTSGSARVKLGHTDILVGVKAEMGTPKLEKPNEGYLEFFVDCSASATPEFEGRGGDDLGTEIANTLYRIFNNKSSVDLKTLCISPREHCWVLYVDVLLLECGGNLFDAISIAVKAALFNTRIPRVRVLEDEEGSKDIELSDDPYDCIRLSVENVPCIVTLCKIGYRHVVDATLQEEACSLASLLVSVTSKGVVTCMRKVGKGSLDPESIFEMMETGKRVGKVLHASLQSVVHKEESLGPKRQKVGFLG
UniProt Q01780: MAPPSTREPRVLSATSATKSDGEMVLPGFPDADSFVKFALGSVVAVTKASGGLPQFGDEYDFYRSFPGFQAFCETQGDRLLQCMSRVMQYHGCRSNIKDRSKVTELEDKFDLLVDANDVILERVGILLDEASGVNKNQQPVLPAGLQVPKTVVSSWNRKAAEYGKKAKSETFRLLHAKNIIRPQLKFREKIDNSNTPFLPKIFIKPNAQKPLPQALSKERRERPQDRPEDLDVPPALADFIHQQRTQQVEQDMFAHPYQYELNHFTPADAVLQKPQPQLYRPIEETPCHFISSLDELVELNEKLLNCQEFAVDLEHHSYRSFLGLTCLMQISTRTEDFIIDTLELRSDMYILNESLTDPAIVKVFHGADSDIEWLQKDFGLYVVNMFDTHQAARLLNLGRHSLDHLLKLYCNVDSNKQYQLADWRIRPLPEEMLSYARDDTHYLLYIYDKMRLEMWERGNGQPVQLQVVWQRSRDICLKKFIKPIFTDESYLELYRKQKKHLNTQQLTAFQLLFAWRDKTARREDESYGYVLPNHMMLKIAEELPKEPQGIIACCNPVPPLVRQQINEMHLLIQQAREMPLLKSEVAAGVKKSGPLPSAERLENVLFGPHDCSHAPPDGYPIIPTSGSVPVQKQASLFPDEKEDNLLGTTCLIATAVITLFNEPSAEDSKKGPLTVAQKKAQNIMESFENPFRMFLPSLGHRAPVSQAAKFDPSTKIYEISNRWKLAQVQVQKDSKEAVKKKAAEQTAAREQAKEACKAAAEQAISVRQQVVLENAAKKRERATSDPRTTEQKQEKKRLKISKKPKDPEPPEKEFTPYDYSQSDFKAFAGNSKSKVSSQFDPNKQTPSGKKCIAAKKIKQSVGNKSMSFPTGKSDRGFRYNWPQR
UniProt Q5RKV6, whole entry, looked up: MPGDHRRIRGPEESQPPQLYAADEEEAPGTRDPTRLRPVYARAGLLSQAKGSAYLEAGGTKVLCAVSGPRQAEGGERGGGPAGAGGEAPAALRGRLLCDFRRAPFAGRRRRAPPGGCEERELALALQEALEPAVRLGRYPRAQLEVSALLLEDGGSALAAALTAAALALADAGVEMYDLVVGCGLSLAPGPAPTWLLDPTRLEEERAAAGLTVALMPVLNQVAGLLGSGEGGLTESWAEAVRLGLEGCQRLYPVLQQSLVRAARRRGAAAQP
UniProt Q8TAG9: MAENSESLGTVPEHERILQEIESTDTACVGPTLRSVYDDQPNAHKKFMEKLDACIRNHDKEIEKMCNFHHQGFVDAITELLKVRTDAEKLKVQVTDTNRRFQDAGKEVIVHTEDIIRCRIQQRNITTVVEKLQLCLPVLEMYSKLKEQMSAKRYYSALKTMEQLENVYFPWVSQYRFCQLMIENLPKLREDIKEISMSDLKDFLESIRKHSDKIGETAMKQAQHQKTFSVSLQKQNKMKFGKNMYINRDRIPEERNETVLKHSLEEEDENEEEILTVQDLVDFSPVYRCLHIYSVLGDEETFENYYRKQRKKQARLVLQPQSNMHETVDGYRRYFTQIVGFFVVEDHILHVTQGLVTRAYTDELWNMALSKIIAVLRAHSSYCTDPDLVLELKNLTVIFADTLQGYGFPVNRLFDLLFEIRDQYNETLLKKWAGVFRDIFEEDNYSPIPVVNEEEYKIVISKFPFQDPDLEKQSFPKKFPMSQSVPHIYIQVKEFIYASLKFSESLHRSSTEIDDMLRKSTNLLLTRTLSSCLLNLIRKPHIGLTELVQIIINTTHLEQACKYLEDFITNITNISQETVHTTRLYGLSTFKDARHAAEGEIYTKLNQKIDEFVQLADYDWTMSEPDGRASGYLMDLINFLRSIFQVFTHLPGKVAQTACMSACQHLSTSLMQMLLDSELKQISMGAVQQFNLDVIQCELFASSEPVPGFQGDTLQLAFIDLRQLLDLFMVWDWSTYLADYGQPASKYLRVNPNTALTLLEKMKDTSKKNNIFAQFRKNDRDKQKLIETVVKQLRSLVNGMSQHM
UniProt P10768: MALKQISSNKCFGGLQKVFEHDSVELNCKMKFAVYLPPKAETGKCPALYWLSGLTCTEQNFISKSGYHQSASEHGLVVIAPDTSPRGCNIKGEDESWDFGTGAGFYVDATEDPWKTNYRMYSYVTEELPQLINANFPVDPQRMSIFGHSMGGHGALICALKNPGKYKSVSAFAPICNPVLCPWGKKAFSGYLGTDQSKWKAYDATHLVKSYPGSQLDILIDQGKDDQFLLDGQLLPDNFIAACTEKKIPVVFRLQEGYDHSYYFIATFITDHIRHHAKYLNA

Target | probe-labelled cysteine peptide fold change (10 µM) | probe-labelled cysteine peptide fold change (50 µM)
ERP29_P30040_157_GQGVYLGMPGCLPVYDALAGEFIR (UniProt P30040) | 0.0186 | -0.0623
ERP44_Q9BS26_318_TPADCPVIAIDSFR (UniProt Q9BS26) | -0.00107 | 0.308
FABP5_Q01469_127_LVVECVMNNVTCTR (UniProt Q01469) | -0.0652 | -0.715
EZH2_Q15910_286_EQSLHSFHTLFCR (UniProt Q15910) | 0.036 | 0.0157
ERCC6L_Q2NKX8_356_NPDVDAICEMPSLSR (UniProt Q2NKX8) | -0.442 | -0.352
ERLIN1_O75477_310_IYFGSNIPNMFVDSSCALK (UniProt O75477) | -0.286 | -0.122
EWSR1_Q01844_384_QCGVVK (UniProt Q01844) | 0.0717 | -0.0424
EXOSC3_Q9NQT5_257_TIQQTLILANILEACEHMTSDQRK (UniProt Q9NQT5) | -0.0341 | -0.152
EXOSC8_Q96B26_60_LGNTTVICGVK (UniProt Q96B26) | 0.108 | 0.0539
EZH2_Q15910_503_LWAAHCR (UniProt Q15910) | -0.194 | -0.482
ERI3_O43414_258_VMLPGQCQYLGLPVADYFK (UniProt O43414) | -0.0545 | 0.225
EVL_Q9UI08-2_9_ATSEQSICQAR (UniProt Q9UI08) | 0.289 | 0.341
ESYT1_Q9BSJ8_995_KLVSIVHGCR (UniProt Q9BSJ8) | -0.124 | 0.0558
ERH_P84090_28+33_TYADYESVNECMEGVCK (UniProt P84090) | 0.00625 | -0.232
ERCC6L_Q2NKX8_1222_IQEALNCLVK (UniProt Q2NKX8) | 0.134 | -0.0872
FABP5_Q01469_87_KTQTVCNFTDGALVQHQEWDGK (UniProt Q01469) | 0.0231 | -0.281
ERCC4_Q92889_803_ILWCPSPHATAELFEELK (UniProt Q92889) | -0.169 | 0.181
ESYT1_Q9BSJ8_995_LVSIVHGCR (UniProt Q9BSJ8) | -0.104 | 0.195
EXOSC7_Q15024_189_VLEDEEGSKDIELSDDPYDCIR (UniProt Q15024) | 0.0352 | -0.579
EXOSC8_Q96B26_251_LQDCMSR (UniProt Q96B26) | -0.217 | -0.0516
FAM129A_Q9BZQ8_516_ALASTCKPELQK (UniProt Q9BZQ8) | -0.0467 | -0.00862

Target | probe-labelled cysteine peptide fold change (10 µM) | probe-labelled cysteine peptide fold change (50 µM)
EXOC5_O00471_194_YHDLECQLIQEFTSAQR (UniProt O00471) | -0.00845 | -0.0241
FABP5_Q01469_47_MGAMAKPDCIITCDGK (UniProt Q01469) | -0.0509 | -0.447
F2_P00734_129_SGIECQLWR (UniProt P00734) | -0.529 | -0.507
ERLIN2_O94905_128_IHHELNQFCSVHTLQEVYIELFDQIDENLK (UniProt O94905) | -0.0325 | 0.308
ERO1A_Q96HE7_99_RDCAVKPCQSDEVPDGIK (UniProt Q96HE7) | -0.0958 | -0.168
ERP44_Q9BS26_92_VDCDQHSDIAQR (UniProt Q9BS26) | 0.0139 | 0.419
FAM129A_Q9BZQ8_891_IHECQWVVEDAPNPDVLLSHKDDVK (UniProt Q9BZQ8) | -0.299 | -0.688
FABP5_Q01469_47_KMGAMAKPDCIITCDGK (UniProt Q01469) | -0.0679 | -0.804
EZH2_Q15910_294_YDCFLHPFHATPNTYKR (UniProt Q15910) | 0.175 | 0.209
ETFB_P38117_66_EVIAVSCGPAQCQETIR (UniProt P38117) | -0.0523 | -0.0417
EXOSC10_Q01780_93_VMQYHGCR (UniProt Q01780) | -0.078 | -0.00745
FAM120B_Q96EK7_416_QEVPMCTGPEAR (UniProt Q96EK7) | -0.508 | -0.442
FAM114A2_Q9NRY5_388_SLAELTACSIELFHK (UniProt Q9NRY5) | 0.16 | 0.23
FAM120B_Q96EK7_523_QEDSMCTHAEINQK (UniProt Q96EK7) | -0.129 | -0.0552
EXOSC3_Q9NQT5_184_DMEPEMVCIDSCGR (UniProt Q9NQT5) | -0.0743 | -0.423
FAM129A_Q9BZQ8_177_HGYFCFHEAADQKR (UniProt Q9BZQ8) | -0.0348 | -0.256
F8A3_P23610_110_LVCPAAYGEPLQAAASALGAAVR (UniProt P23610) | -0.0254 | 0.113
ERLEC1_Q96DZ1_421_MVSHFYGNGDICDITDKPR (UniProt Q96DZ1) | -0.0283 | 0.0403
EXOC2_Q96KP1_373_YLSDLHASGDPAWQCIGAQHK (UniProt Q96KP1) | -0.116 | -0.149
EZH2_Q15910_260_ELTEQQLPGALPPECTPNIDGPNAK (UniProt Q15910) | -0.164 | 0.256
EXOC6B_Q9Y2D4_32_EIESTDTACIGPTLR (UniProt Q9Y2D4) | -0.179 | -0.097

Target | probe-labelled cysteine peptide fold change (10 µM) | probe-labelled cysteine peptide fold change (50 µM)
EXOSC6_Q5RKV6_117_APPGGCEERELALALQEALEPAVR (UniProt Q5RKV6) | -0.5 | -1.49
EXOC6_Q8TAG9_532_TLSSCLLNLIR (UniProt Q8TAG9) | 0.197 | 0.348
EXOSC6_Q5RKV6_117_APPGGCEER (UniProt Q5RKV6) | -0.34 | 0.392
ETFDH_Q16134_248_VTIFAEGCHGHLAK (UniProt Q16134) | -0.102 | 0.159
F13A1_P00488_410_CGPASVQAIK (UniProt P00488) | -0.223 | -0.133
FABP5_Q01469_120_LVVECVMNNVTCTR (UniProt Q01469) | -0.132 | -0.796
ERMP1_Q7Z2K6_222_DGAQHAVLANCHFDSVANSPGASDDAVSCSVMLEVLR (UniProt Q7Z2K6) | 0.0903 | 0.371
ERMP1_Q7Z2K6_43_AQEPLVDGCSGGGR (UniProt Q7Z2K6) | -0.232 | -0.171
ESCO2_Q56NI9_263_CLVLEEK (UniProt Q56NI9) | -0.0192 | -0.162
EXOSC8_Q96B26_125_EDLCISPGK (UniProt Q96B26) | 0.496 | 0.605
ETFA_P13804_53_LGGEVSCLVAGTK (UniProt P13804) | -0.162 | -0.143
EXOSC10_Q01780_288_PQPQLYRPIEETPCHFISSLDELVELNEK (UniProt Q01780) | 0.177 | 0.318
ERO1A_Q96HE7_394_IMDCVGCFK (UniProt Q96HE7) | 0.0172 | 0.0529
ESD_P10768_28_VFEHDSVELNCK (UniProt P10768) | 0.217 | -0.124
EXOC6_Q8TAG9_135_LQLCLPVLEMYSK (UniProt Q8TAG9) | 0.263 | 0.247
EXOSC7_Q15024_199_LSVENVPCIVTLCK (UniProt Q15024) | 0.143 | 0.128
F2_P00734_564_GDACEGDSGGPFVMK (UniProt P00734) | -0.358 | -0.6
FAM129B_Q96TA1_194_HCNNGIPEDSK (UniProt Q96TA1) | -0.0068 | 0.21
EXOC1_Q9NV70_27_LLSIVNVCK (UniProt Q9NV70) | 0.00997 | -0.000865
ESD_P10768_45_CPALYWLSGLTCTEQNFISK (UniProt P10768) | -0.229 | -0.18
EXOC5_O00471_236_QCQEGAYLR (UniProt O00471) | 0.0713 | 0.221

Target | probe-labelled cysteine peptide fold change (10 µM) | probe-labelled cysteine peptide fold change (50 µM)
FAM102B_Q5T8I3_254_RNTSVGSTSTGVESILEPCDEIEQK (UniProt Q5T8I3) | -0.237 | 0.149
FAM120B_Q96EK7_356_QEVPMCTGPESR (UniProt Q96EK7) | -0.475 | -0.317
EXOSC8_Q96B26_234_LCCLHKPGGSGLTGAK (UniProt Q96B26) | 0.0172 | -0.651
EXOSC7_Q15024_85_PNEGYLEFFVDCSASATPEFEGR (UniProt Q15024) | 0.35 | 0.666
FAM111B_Q6SJ93_212_LCIYALK (UniProt Q6SJ93) | 0.0556 | -0.298
FABP5_Q01469_43+47_MGAMAKPDCIITCDGK (UniProt Q01469) | -0.0376 | -0.51
ERI1_Q8IV48_294_LGMDYDGRPHCGLDDSK (UniProt Q8IV48) | 0.0174 | -0.0387
FAM111A_Q96PZ2_36_EQQNNCSTSLMR (UniProt Q96PZ2) | -0.0916 | 0.38
ERMP1_Q7Z2K6_204+222_DGAQHAVLANCHFDSVANSPGASDDAVSCSVMLEVLR (UniProt Q7Z2K6) | -0.0802 | 0.128
EXOSC9_Q06265_9_MKETPLSNCER (UniProt Q06265) | -0.239 | -0.611
F11R_Q9Y624_50_LSCAYSGFSSPR (UniProt Q9Y624) | -0.082 | -0.2
EZH2_Q15910_580_ECDPDLCLTCGAADHWDSK (UniProt Q15910) | 0.0735 | -0.174
FAM126B_Q8IXS8_7_CVVEEWLSEFK (UniProt Q8IXS8) | -0.174 | -0.415
FAM120B_Q96EK7_700_LDTLLACFNLSSSR (UniProt Q96EK7) | 0.24 | 0.346
FABP5_Q01469_120+127_LVVECVMNNVTCTR (UniProt Q01469) | -0.0383 | -0.868
EXOSC3_Q9NQT5_257_TIQQTLILANILEACEHMTSDQR (UniProt Q9NQT5) | 0.196 | 0.248
ERGIC3_Q9Y282_145_HELGKVEVTVFDPDSLDPDRCESCYGAEAEDIK (UniProt Q9Y282) | -0.183 | -0.175
ESCO2_Q56NI9_392_SCGMIYTASNPEDEMQHVQHHHR (UniProt Q56NI9) | 0.666 | 0.392
ETHE1_O95571_170_TDFQQGCAK (UniProt O95571) | -0.118 | -1.3
EXOSC10_Q01780_555_IAEELPKEPQGIIACCNPVPPLVR (UniProt Q01780) | -0.144 | -1.17
ESD_P10768_11_CFGGLQK (UniProt P10768) | 0.0299 | -0.116

Source: the supplement of paper PMC12067093, “Discovery and optimisation of a covalent ligand for TRIM25 and its application to targeted protein ubiquitination” (Chemical Science, 2025)
